Test results reported in US20160257744A1.
Results are given in words; binding and its absence hold for the method and conditions named. Some entries that bind do so weakly or less than the wild type.

Amino acid sequences for entries named in this document (tags omitted). Residues count along the entry.
UniProt P05113, residues 20-134: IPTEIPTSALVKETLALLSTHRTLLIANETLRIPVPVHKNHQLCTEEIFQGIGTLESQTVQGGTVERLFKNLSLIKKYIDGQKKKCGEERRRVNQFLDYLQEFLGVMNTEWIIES

Target: interleukin 5 (IL5) (human) (UniProt P05113)
Assay: ELISA: biotinylated IL5 receptor α on immobilized IL5, streptavidin-HRP

binding: binds
B1: IL5 receptor α (receptor, UniProt Q01344 21-335, looked up)
chain: DLLPDEKISLLPPVNFTIKVTGLAQVLLQWKPNPDQEQRNVNLEYQVKINAPKEDDYETRITESKCVTILHKGFSASVRTILQNDHSLLASSWASAELHAPPGSPGTSIVNLTCTTNTTEDNYSRLRSYQVSLHCTWLVGTDAPEDTQYFLYYRYGSWTEECQEYSKDTLGRNIACWFPRTFILSKGRDWLAVLVNGSSKHSAIRPFDQLFALHAIDQINPPLNVTAEIEGTRLSIQWEKPVSAFPIHCFDYEVKIHNTRNGYLQIEKLMTNAFISIIDDLSKYDVQVRAAVSSMCREAGLWSEWSQPIYVGNDE
